Results deposited as PubChem BioAssay AID1508588 (Peter MacCallum Cancer Centre, 2020).
The deposit covers about 18,000 reagents; shown is a random part of them. In the full data, 790 (4.4%) were called active. 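Calls rest on a combination of fold-change classes in drug and vehicle arms, not all shown here.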 Unmarked entries are inactive.

Screen: 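Genome-wide search for knock-downs that heighten vemurafenib action in melanoma cells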 (primary screen)
Cells: human WM266.4 melanoma cells (BRAF V600 mutant)
Knock-down reagent: siRNA pool against human genes, 40 nM
Duration: 96 h from transfection to read-out
Conditions: vemurafenib 300 nM (about IC25), added 48 h after transfection, for 48 h; comparison arm got DMSO vehicle only
Measured: 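Cell gain (DAPI nuclei at end minus before drug, mean of two replicates) and medium lactate by absorbance per cell, both as ratio to non-targeting siRNA, also grouped into fold-change classes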
Direction: cell gain with vemurafenib: higher = more cell gain than with non-targeting siRNA; lactate per cell with vemurafenib: higher = more lactate made per cell
Hit rule: 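a knock-down counts as enhancing when its fold-change classes with vehicle and with vemurafenib, taken together, show a stronger drug effect on cell gain or lactate per cell; exact class pairs not stated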
Calls: active = enhances vemurafenib effect; inactive = no enhancement seen

gene,cell gain with vemurafenib,lactate per cell with vemurafenib
ZFP28 (GeneID 140612),0.76,0.65
CPEB1 (GeneID 64506),0.8,0.68
GLT8D1 (GeneID 55830),1.07,0.75
UBP1 (GeneID 7342),0.23,0.78
DRD3 (GeneID 1814),0.61,1
TBR1 (GeneID 10716),0.3,1.59
AQP7 (GeneID 364),1.05,0.98
CIMAP2 (GeneID 163747),0.45,1.73
PIGZ (GeneID 80235),0.32 (active),0.66
IQCJ (GeneID 654502),0.61,0.26
DDIT3 (GeneID 1649),-0.13,1.29
LYPD3 (GeneID 27076),0.58,1.06
ALPK3 (GeneID 57538),0.1,1.98
ZNF354B (GeneID 117608),0.72,1.17
AKR7L (GeneID 246181),0.76,1.62
SFTPA2B (retired record) (GeneID 6436),1.17,1.25
TMIGD1 (GeneID 388364),0.29,2.46
FBXL7 (GeneID 23194),1.2,0.78
TTL (GeneID 150465),0.95,0.76
COMTD1 (GeneID 118881),0.75,1.31
SLFNL1 (GeneID 200172),0.58,1
B4GALNT3 (GeneID 283358),0.67,0.42
HCG27 (GeneID 253018),0.87,0.32
SMARCA1 (GeneID 6594),0.6,0.8
PCCB (GeneID 5096),0.77,0.94
TPI1 (GeneID 7167),0.96,0.87
FTMT (GeneID 94033),0.57,0.9
AKAP3 (GeneID 10566),0.59,1.04
AGPAT2 (GeneID 10555),0.73,0.77
LAMC3 (GeneID 10319),0.7,1.27
PCGF2 (GeneID 7703),1,0.84
ALG3 (GeneID 10195),0.77,0.68
TALDO1 (GeneID 6888),0.77,0.94
RGS21 (GeneID 431704),0.93,0.77
